Data as given in article PMC10040217.
Results are given in words; binding and its absence hold for the method and conditions named. Binding seen in cells or lysates may run through a third protein. Some binding calls cover weakened binding; strength is not graded here. Where a sequence is shown, tags or fusion partners need not be part of it.

The chains behind the UniProt entries cited, without tags or fusion partners.
UniProt Q9VWE6: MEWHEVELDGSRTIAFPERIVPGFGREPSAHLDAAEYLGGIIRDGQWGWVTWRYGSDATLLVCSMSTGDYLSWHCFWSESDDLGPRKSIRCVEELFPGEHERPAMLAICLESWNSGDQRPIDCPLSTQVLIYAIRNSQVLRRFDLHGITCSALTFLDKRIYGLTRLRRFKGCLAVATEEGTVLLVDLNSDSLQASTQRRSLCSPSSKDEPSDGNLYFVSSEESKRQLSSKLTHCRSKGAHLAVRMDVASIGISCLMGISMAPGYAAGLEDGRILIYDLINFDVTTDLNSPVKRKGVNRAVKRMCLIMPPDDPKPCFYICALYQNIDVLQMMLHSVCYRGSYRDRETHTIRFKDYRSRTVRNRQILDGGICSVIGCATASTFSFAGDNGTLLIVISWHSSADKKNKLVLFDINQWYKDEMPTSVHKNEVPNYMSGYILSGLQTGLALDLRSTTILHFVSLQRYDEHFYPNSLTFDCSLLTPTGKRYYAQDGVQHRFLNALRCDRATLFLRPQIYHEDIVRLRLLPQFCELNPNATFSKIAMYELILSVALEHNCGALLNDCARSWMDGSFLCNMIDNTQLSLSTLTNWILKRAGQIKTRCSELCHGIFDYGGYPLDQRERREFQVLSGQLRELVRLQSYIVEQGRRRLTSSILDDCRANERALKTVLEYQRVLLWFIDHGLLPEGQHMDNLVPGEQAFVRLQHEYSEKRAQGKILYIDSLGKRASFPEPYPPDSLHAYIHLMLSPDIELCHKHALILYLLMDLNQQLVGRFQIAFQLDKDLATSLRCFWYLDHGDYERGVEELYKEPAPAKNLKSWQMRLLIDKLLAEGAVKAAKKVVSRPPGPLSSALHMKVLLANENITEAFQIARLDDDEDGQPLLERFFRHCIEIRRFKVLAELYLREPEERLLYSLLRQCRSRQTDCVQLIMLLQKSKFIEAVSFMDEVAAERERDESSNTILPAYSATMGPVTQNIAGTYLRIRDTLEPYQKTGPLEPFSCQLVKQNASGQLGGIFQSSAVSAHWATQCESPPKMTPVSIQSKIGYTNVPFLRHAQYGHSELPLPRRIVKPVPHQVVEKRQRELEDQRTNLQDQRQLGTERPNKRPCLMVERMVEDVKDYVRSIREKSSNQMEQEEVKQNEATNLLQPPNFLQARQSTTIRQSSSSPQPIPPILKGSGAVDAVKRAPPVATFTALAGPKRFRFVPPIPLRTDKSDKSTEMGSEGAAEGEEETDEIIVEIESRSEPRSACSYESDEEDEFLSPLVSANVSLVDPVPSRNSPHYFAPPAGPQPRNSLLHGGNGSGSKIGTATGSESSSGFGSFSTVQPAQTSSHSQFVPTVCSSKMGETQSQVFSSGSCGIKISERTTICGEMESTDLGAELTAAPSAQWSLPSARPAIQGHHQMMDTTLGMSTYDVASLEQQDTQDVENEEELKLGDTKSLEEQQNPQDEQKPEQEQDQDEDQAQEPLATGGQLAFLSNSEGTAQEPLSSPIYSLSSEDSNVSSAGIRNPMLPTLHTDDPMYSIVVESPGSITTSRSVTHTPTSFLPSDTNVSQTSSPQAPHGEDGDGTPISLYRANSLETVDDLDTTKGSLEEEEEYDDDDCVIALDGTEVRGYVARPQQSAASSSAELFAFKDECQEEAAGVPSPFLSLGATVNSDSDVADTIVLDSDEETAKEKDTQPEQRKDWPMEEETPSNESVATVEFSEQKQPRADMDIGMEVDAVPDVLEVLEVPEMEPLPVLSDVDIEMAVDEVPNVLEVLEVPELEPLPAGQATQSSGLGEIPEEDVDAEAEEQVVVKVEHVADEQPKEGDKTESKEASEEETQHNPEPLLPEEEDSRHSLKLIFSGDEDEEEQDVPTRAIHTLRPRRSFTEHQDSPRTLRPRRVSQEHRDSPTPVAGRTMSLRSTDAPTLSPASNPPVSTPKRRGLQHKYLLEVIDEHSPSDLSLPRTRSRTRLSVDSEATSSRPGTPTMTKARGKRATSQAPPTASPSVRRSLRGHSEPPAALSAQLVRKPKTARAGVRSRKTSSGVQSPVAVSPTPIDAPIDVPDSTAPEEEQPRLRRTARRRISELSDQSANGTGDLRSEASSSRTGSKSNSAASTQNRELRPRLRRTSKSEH

Target: T1, ORC2-GFP (Drosophila (endogenous in embryos)) (UniProt Q24168)
T1 sequence: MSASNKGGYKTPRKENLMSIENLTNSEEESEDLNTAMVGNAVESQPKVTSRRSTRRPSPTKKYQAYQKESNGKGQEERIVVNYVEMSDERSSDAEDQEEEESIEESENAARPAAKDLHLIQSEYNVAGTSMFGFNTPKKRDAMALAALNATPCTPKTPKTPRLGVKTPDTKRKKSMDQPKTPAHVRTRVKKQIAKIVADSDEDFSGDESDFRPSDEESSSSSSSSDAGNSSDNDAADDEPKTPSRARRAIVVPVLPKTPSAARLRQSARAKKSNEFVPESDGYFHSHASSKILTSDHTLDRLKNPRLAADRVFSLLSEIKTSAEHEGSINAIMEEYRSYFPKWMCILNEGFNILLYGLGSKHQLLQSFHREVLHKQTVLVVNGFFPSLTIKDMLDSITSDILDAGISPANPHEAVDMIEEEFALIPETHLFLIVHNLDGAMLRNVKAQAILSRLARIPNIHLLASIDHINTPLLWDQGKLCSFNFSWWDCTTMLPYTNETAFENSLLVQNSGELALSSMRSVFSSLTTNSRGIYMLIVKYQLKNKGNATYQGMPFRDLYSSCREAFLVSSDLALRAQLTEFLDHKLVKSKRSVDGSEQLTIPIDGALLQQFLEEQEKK
Assay: co-IP; GFP-Trap IP of ORC2-GFP from benzonase-treated Drosophila embryo extracts, western blot with anti-ORC2 and anti-Elys; repeated at multiple time points through embryogenesis

binding: binds
Substance: Elys (from UniProt Q9VWE6 1-2111)
